This is an account of results in PubChem BioAssay AID248 (DTP/NCI, 2004).

The list does not hold the whole screen: it gathers tests that were run many times, whatever their T/C, doses with no T/C, and many T/C values between a quarter and a half above the control. Other doses and runs of a compound stand elsewhere. T/C gives the treated animals as a percentage of the vehicle group. Some entries give survivors of the animals treated and no T/C: the source holds a T/C of zero for them, seemingly a mark for toxic or unscored doses. Some survivor counts are full or nearly so, which does not show that the dose was tolerated: the source hardly ever lists a survival T/C far under the control, and the zero likely stands for such cases as well. Counts of survivors are from the toxicity check (mostly the fifth day) where no day follows; animals may have died later. Schedules are NCI's codes, read here as Q, the interval in days (D) or hours (H), X, the number of doses. Some schedules carry Z or #; the key to these is not given. Some entries were tested several times; their values stand side by side, smallest first. Where survival is the endpoint, the PubChem record calls one and a half times the control and up active, and a quarter to a half above the control has no call in these data; cut-offs in other NCI protocols can differ. Some T/C values are followed by the survivors on the day toxicity was checked, most often the fifth; without a count, all were alive then.

This test concerns L1210 leukemia ip in BDF1 mice, survival T/C. Briefly: NCI In Vivo Anticancer Drug Screen. Data for tumor model L1210 Leukemia (intraperitoneal) in B6D2F1 (BDF1) mice. As to conditions: T/C endpoint: mean survival time, higher T/C = longer survival.
The mark [1] stands for this setting: dose: 20.0 mg/kg/injection, schedule: Q01DX Z (oral), vehicle: water.
[2] abbreviates: dose: 400.0 mg/kg/injection, schedule: Q04DX003 (ip), vehicle: Klucel (hydroxypropylcellulose) (HPC).

`COc1cc2c3c(c4ccc(OC)c(OC)c4c2cc1OC)CN1CCC[C@@H]1C3`: the T/C was 127 % of control (dose: 2.5 mg/kg/injection, schedule: Q01DX Z (ip), vehicle: water); 128 % of control (dose: 4.4 mg/kg/injection, schedule: Q01DX Z (ip), vehicle: carboxymethylcellulose (CMC)); 126 % of control (dose: 4.4 mg/kg/injection, schedule: Q01DX Z (ip), vehicle: other); 128 % of control (dose: 5.0 mg/kg/injection, schedule: Q01DX Z (im), vehicle: water); 133 % of control (dose: 5.0 mg/kg/injection, schedule: Q01DX Z (sc), vehicle: water); 131 % of control (dose: 5.0 mg/kg/injection, schedule: Q02DX Z (ip), vehicle: water). Besides, the T/C was 128 % of control (dose: 6.6 mg/kg/injection, schedule: Q01DX Z (ip), vehicle: carboxymethylcellulose (CMC)); 139 % of control (dose: 7.0 mg/kg/injection, schedule: Q01DX Z (ip), vehicle: carboxymethylcellulose (CMC)); 134 % of control (dose: 7.5 mg/kg/injection, schedule: Q01DX Z (im), vehicle: water); 101 [4 of 6 alive], 114, 144, 151 % of control (dose: 10.0 mg/kg/injection, schedule: Q01DX Z (ip), vehicle: carboxymethylcellulose (CMC)); 141 % of control (dose: 10.0 mg/kg/injection, schedule: Q01DX Z (ip), vehicle: other); 128 and 142 % of control (dose: 10.0 mg/kg/injection, schedule: Q01DX Z (ip), vehicle: water). Besides, the T/C by setting is: (dose: 10.0 mg/kg/injection, schedule: Q01DX Z (oral), vehicle: water) 112, 113, 116, 141 % of control; (dose: 10.0 mg/kg/injection, schedule: Q01DX Z (sc), vehicle: water) 126 % of control; (dose: 10.0 mg/kg/injection, schedule: Q02DX Z (ip), vehicle: water) 135 % of control; (dose: 15.0 mg/kg/injection, schedule: Q01DX005 (iv), vehicle: water) 128 % of control; (dose: 15.0 mg/kg/injection, schedule: Q01DX Z (ip), vehicle: carboxymethylcellulose (CMC)) 87 [5 of 6 alive], 104 [5 of 6 alive], 120 [5 of 6 alive], 138 % of control; (dose: 20.0 mg/kg/injection, schedule: Q01DX005 (iv), vehicle: water) 144 % of control [4 of 6 alive]. The T/C is 97 % of control under setting [1]; 137 % of control (dose: 20.0 mg/kg/injection, schedule: Q02DX Z (ip), vehicle: water); 133 % of control (dose: 20.0 mg/kg/injection, schedule: Q02DX Z (oral), vehicle: water); 131 % of control (dose: 20.0 mg/kg/injection, schedule: Q03DX Z (ip), vehicle: water); 128 and 134 % of control (dose: 30.0 mg/kg/injection, schedule: Q03DX Z (ip), vehicle: water); 136 % of control (dose: 40.0 mg/kg/injection, schedule: Q03DX Z (ip), vehicle: water). The T/C is 126 % of control [4 of 6 alive] (dose: 40.0 mg/kg/injection, schedule: Q07DX003 (ip), vehicle: water); 133 % of control (dose: 60.0 mg/kg/injection, schedule: Q01DX001 (ip), vehicle: saline); 138 % of control (dose: 60.0 mg/kg/injection, schedule: Q07DX Z (ip), vehicle: saline); 136 % of control [5 of 6 alive] (dose: 80.0 mg/kg/injection, schedule: Q01DX001 (ip), vehicle: saline); 131 % of control (dose: 80.0 mg/kg/injection, schedule: Q07DX Z (ip), vehicle: saline); 125 % of control [5 of 6 alive] (dose: 160.0 mg/kg/injection, schedule: Q01DX001 (ip), vehicle: saline). For the same compound, the survivor count (dose: 15.0 mg/kg/injection, schedule: Q01DX Z (oral), vehicle: water) is given as 6 of 6; the survivor count (dose: 20.0 mg/kg/injection, schedule: Q01DX Z (im), vehicle: water) is 3 of 6; the survivor count (dose: 20.0 mg/kg/injection, schedule: Q01DX Z (ip), vehicle: water) is reported as 3 of 6; the survivor count under setting [1] was 2 of 6, 4 of 6, 6 of 6; the survivor count (dose: 20.0 mg/kg/injection, schedule: Q01DX Z (sc), vehicle: water) is listed as 6 of 6; the survivor count (dose: 24.0 mg/kg/injection, schedule: Q01DX Z (ip), vehicle: water) is recorded as 3 of 6. In addition, the survivor count by setting is: (dose: 30.0 mg/kg/injection, schedule: Q01DX Z (ip), vehicle: water) 0 of 6; (dose: 30.0 mg/kg/injection, schedule: Q01DX Z (oral), vehicle: water) 0 of 6 and 1 of 6; (dose: 40.0 mg/kg/injection, schedule: Q01DX005 (iv), vehicle: saline) 0 of 6; (dose: 40.0 mg/kg/injection, schedule: Q01DX Z (oral), vehicle: water) 0 of 6; (dose: 40.0 mg/kg/injection, schedule: Q02DX Z (ip), vehicle: water) 3 of 6; (dose: 40.0 mg/kg/injection, schedule: Q02DX Z (oral), vehicle: water) 2 of 6. In addition, the survivor count runs as follows: (dose: 60.0 mg/kg/injection, schedule: Q01DX005 (iv), vehicle: saline) 0 of 6; (dose: 60.0 mg/kg/injection, schedule: Q03DX Z (ip), vehicle: water) 0 of 6; (dose: 80.0 mg/kg/injection, schedule: Q01DX005 (iv), vehicle: saline) 0 of 6.
With `CC(C)(C)c1cc(C[N+](C)(C)C)cc(C(C)(C)C)n1`, the survivor count (dose: 200.0 mg/kg/injection, schedule: Q04DX002 (ip), vehicle: saline with Tween-80) was 1 of 3.
`O=c1nc2n(O)cccc-2c(=O)[nH]1`: under setting [2], the survivor count is 1 of 6.
With `CC(C)CCCCCCCCCCCCC(=O)NCC(=O)NC1C(O)C(O)C(Nc2ncnc3nc[nH]c23)OC1C(O)CO` (centres undefined), where the note is “dose: 40.0 mg/kg/injection, schedule: Q01DX001 (ip), vehicle: saline”, the survivor count was 1 of 4.
For the compound `O=P(Oc1ccccc1)(N1CCCC1)N1CCCC1`, the survivor count (dose: 400.0 mg/kg/injection, schedule: Q04DX002 (ip), vehicle: saline) is 1 of 3.
As to `CCCCC(C)C1(CC)C(=O)NC(=O)NC1=O` (centres undefined), the survivor count reads like this: (dose: 150.0 mg/kg/injection, schedule: Q01DX001 (ip), vehicle: saline) 2 of 6; (dose: 300.0 mg/kg/injection, schedule: Q01DX001 (ip), vehicle: saline) 0 of 6.
For the compound `Cc1cc(=O)c(CCl)n[nH]1`, the survivor count reads like this: (dose: 50.0 mg/kg/injection, schedule: Q01DX009 (ip), vehicle: Klucel (hydroxypropylcellulose) (HPC)) 6 of 6; (dose: 100.0 mg/kg/injection, schedule: Q01DX009 (ip), vehicle: Klucel (hydroxypropylcellulose) (HPC)) 0 of 6; (dose: 200.0 mg/kg/injection, schedule: Q04DX003 (ip), vehicle: Klucel (hydroxypropylcellulose) (HPC)) 4 of 6; under setting [2], 0 of 6.
In the case of `CCC(=O)C(CCN(C)C)(c1ccccc1)c1ccccn1` (centres undefined), the survivor count (dose: 100.0 mg/kg/injection, schedule: Q01DX Z (ip), vehicle: saline) is recorded as 2 of 6.
On to `COc1c(Cl)cc([N+](=O)[O-])cc1Cl`, for which the survivor count is 2 of 6 and 3 of 6 (dose: 100.0 mg/kg/injection, schedule: Q01DX009 (ip), vehicle: gum acacia); 0 of 6 (dose: 200.0 mg/kg/injection, schedule: Q01DX009 (ip), vehicle: gum acacia); 0 of 6 (dose: 400.0 mg/kg/injection, schedule: Q01DX009 (ip), vehicle: gum acacia).
`OCCC(c1ccc(Cl)cc1)N1CCCCC1` (centres undefined): the survivor count (dose: 200.0 mg/kg/injection, schedule: Q01DX001 (ip), vehicle: other) is given as 2 of 4 and the survivor count (dose: 400.0 mg/kg/injection, schedule: Q01DX001 (ip), vehicle: other) is given as 1 of 4.
Consider `O=C(C[n+]1ccccc1)N/N=C/c1cccc([N+](=O)[O-])c1`, for which the survivor count (dose: 100.0 mg/kg/injection, schedule: Q01DX009 (ip), vehicle: saline with Tween-80) was 3 of 3 and the survivor count (dose: 200.0 mg/kg/injection, schedule: Q01DX009 (ip), vehicle: saline with Tween-80) is on record as 0 of 3.
For the compound `CS(=O)(=O)Nc1ccccc1-c1nc2ccccc2c(=O)o1`, for the setting “dose: 200.0 mg/kg/injection, schedule: Q04DX002 (ip), vehicle: Klucel (hydroxypropylcellulose) (HPC)”, the survivor count is recorded as 3 of 3.
